For 6 molecules, binding results are on record in PMC11405407.

The chains behind the UniProt entries cited, without tags or fusion partners.
UniProt Q92831: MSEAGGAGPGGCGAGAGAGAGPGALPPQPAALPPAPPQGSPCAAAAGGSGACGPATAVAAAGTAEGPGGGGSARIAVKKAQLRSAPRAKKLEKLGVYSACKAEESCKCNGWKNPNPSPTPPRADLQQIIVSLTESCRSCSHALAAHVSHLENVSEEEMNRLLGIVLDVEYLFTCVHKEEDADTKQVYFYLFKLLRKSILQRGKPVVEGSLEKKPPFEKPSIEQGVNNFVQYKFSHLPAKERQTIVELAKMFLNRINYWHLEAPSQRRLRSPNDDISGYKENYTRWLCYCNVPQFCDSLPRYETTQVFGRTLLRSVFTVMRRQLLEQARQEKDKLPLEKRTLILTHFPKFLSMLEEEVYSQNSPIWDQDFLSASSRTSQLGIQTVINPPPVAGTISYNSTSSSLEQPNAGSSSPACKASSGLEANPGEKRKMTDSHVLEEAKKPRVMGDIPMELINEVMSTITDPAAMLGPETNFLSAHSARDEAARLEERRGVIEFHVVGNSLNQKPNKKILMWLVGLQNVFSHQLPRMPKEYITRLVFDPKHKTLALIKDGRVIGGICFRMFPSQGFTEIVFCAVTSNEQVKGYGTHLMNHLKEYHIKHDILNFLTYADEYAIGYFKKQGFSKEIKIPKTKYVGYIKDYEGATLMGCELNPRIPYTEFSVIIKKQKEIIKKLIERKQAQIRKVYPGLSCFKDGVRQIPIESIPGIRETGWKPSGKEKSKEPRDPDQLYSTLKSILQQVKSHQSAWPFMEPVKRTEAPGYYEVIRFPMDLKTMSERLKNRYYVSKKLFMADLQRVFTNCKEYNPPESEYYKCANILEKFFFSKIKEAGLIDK

Like-named read-outs stand apart in the source and are kept apart here. Results are given in words; binding and its absence hold for the method and conditions named. Binding seen in cells or lysates may run through a third protein. Some results given as binding are weak or reduced against the parent protein; the word gives no strength. For part of these data: Sequences can lack the tags named with a protein.

Assay [1] deals with Myc-tagged SNRNP200 (human) (UniProt O75643). The assay is described as follows: co-IP; HEK293T cells transfected with tagged plasmids, IP with anti-FLAG or anti-Myc-Tag overnight at 4 °C and protein A/G magnetic beads, immunoblot; cells in 2.5 mM or 25 mM glucose, with or without TSA, where indicated. On the technique in general: A western blot detects proteins with antibodies after separation by electrophoresis.

Assay [2] has as its target SNRNP200 (endogenous) (human (endogenous in MDA-MB-231 and BT-549)) (UniProt O75643). The assay is described as follows: co-IP; endogenous IP in MPS2 cells (BT-549 treated with glucose at the indicated concentrations), immunoblot.
Assay [3] shares this target. Described as above. The source holds these as a separate data set.
Assay [4] addresses Myc-tagged SNRNP200 (human) (UniProt O75643). As to the kind of experiment: co-IP; HEK293T cells transfected with tagged plasmids, IP with anti-FLAG or anti-Myc-Tag overnight at 4 °C and protein A/G magnetic beads, immunoblot; cells in 2.5 mM or 25 mM glucose, with or without TSA, where indicated. This is another data set of the same source.

Take “Flag-tagged PCAF (from UniProt Q92831 1-832) (enzyme)”: the binding entry in assay [1] is “binds”.
In the case of “HDAC5 (endogenous) (from UniProt Q9UQL6 1-1122) (enzyme)”, the binding result in assay [2] was “binds”.
On to “PCAF (endogenous) (from UniProt Q92831 1-832) (enzyme)”, for which the binding entry in assay [2] is reported as “binds”.
As for “HDAC5-FLAG (overexpressed histone deacetylase 5) (from UniProt Q9UQL6 1-1122) (enzyme)”, in assay [1], the binding result is listed as “binds”.

B1: RNF123 (endogenous) (enzyme, UniProt Q5XPI4 1-1314)
chain: MASKGAGMSFSRKSYRLTSDAEKSRVTGIVQEKLLNDYLNRIFSSSEHAPPAATSRKPLNFQNLPEHLDQLLQVDNEEEESQGQVEGRLGPSTVVLDHTGGFEGLLLVDDDLLGVIGHSNFGTIRSTTCVYKGKWLYEVLISSQGLMQIGWCTISCRFNQEEGVGDTHNSYAYDGNRVRKWNVTTTNYGKAWAAGDIVSCLIDLDDGTLSFCLNGVSLGTAFENLSRGLGMAYFPAISLSFKESVAFNFGSRPLRYPVAGYRPLQDPPSADLVRAQRLLGCFRAVLSVELDPVEGRLLDKESSKWRLRGQPTVLLTLAHIFHHFAPLLRKVYLVEAVLMSFLLGIVEKGTPTQAQSVVHQVLDLLWLFMEDYEVQDCLKQLMMSLLRLYRFSPIVPDLGLQIHYLRLTIAILRHEKSRKFLLSNVLFDVLRSVVFFYIKSPLRVEEAGLQELIPTTWWPHCSSREGKESTEMKEETAEERLRRRAYERGCQRLRKRIEVVEELQVQILKLLLDNKDDNGGEASRYIFLTKFRKFLQENASGRGNMPMLCPPEYMVCFLHRLISALRYYWDEYKASNPHASFSEEAYIPPQVFYNGKVDYFDLQRLGGLLSHLRKTLKDDLASKANIVIDPLELQSTAMDDLDEDEEPAPAMAQRPMQALAVGGPLPLPRPGWLSSPTLGRANRFLSTAAVSLMTPRRPLSTSEKVKVRTLSVEQRTREDIEGSHWNEGLLLGRPPEEPEQPLTENSLLEVLDGAVMMYNLSVHQQLGKMVGVSDDVNEYAMALRDTEDKLRRCPKRRKDILAELTKSQKVFSEKLDHLSRRLAWVHATVYSQEKMLDIYWLLRVCLRTIEHGDRTGSLFAFMPEFYLSVAINSYSALKNYFGPVHSMEELPGYEETLTRLAAILAKHFADARIVGTDIRDSLMQALASYVCYPHSLRAVERIPEEQRIAMVRNLLAPYEQRPWAQTNWILVRLWRGCGFGYRYTRLPHLLKTKLEDANLPSLQKPCPSTLLQQHMADLLQQGPDVAPSFLNSVLNQLNWAFSEFIGMIQEIQQAAERLERNFVDSRQLKVCATCFDLSVSLLRVLEMTITLVPEIFLDWTRPTSEMLLRRLAQLLNQVLNRVTAERNLFDRVVTLRLPGLESVDHYPILVAVTGILVQLLVRGPASEREQATSVLLADPCFQLRSICYLLGQPEPPAPGTALPAPDRKRFSLQSYADYISADELAQVEQMLAHLTSASAQAAAASLPTSEEDLCPICYAHPISAVFQPCGHKSCKACINQHLMNNKDCFFCKTTIVSVEDWEKGANTSTTSSAA
As for B1, in assay [3], the binding entry is listed as “binds”.

B2: RNF123-FLAG (enzyme, UniProt Q5XPI4 1-1314)
chain: B1 chain
On to B2, for which the binding result in assay [4] is listed as “binds”.
